In the supplement of paper PMC6119338:
± gives the standard deviation of the averaged measurements. The list shows a part of the results. Repeats are few or missing, and single values can be far off.

These compounds were tested on Plasmodium berghei sporozoites (assay: residual sporozoite gliding motility relative to DMSO control; higher = less inhibition of motility). Settings: 10 µM; incubation time 30 min.

Residual sporozoite gliding motility, > 50%:
O=C(Nc1ccc(-c2nc3ccccc3[nH]2)cc1)c1ccc(Cl)c(Cl)c1
CCOc1ccc(Nc2ccnc3cc(Cl)ccc23)cc1
COc1ccc2c(c1OC)C(=O)N1c3ccccc3N=C(c3ccc(C)cc3)CC21 (stereo unspecified)
CCC(c1ccccc1)c1nn2c(-c3cccs3)nnc2s1 (stereo unspecified)
FC(F)(F)c1cccc(Nc2nc(-c3ccccc3)nc3ncccc23)c1
COc1ccc(OC)c(C2C3=C(CC(C)(C)CC3=O)N(c3ccc(Cl)c(Cl)c3)C3=C2C(=O)CC(C)(C)C3)c1
Oc1ccccc1CNCC12CC3CC(CC(C3)C1)C2
c1ccc2c(NCCc3c[nH]c4ccccc34)c3ccccc3nc2c1
Cc1ccc(CSCc2ccc(C(=O)NC3CC3)o2)cc1
CN(C)c1ccc(-c2nc3cc(N)ccc3[nH]2)cc1
CCOc1ccc(-c2nonc2NC(=O)c2cccc(C)c2)cc1OCC
CCOC(=O)c1cnc2ccc(OC)cc2c1Nc1ccc(N2CCN(C)CC2)cc1
Cc1ccc(NC(=O)Nc2cccc(Cl)c2)cc1F
CCOc1ccc(CN2CCN(CC(O)COc3ccc(OCC(O)CN4CCN(Cc5ccc(OCC)cc5)CC4)cc3)CC2)cc1 (stereo unspecified)
COc1cccc(C(=O)NC(c2ccc(C)cc2)c2cc(Cl)c3cccnc3c2O)c1 (stereo unspecified)
Nc1ccn([C@@H]2O[C@H](CO)[C@@H](O)[C@H]2O)c(=O)n1
CCCCOC(=O)c1ccc(Nc2cc(C)nc3ccc(OC)cc23)cc1
Cc1sc2ncnc(Sc3nc4ccccc4[nH]3)c2c1C
Oc1ccc(Cl)cc1CNc1nc2ccccc2[nH]1
COc1ccc(C(O)(CCC(C)C)C(CN2CCOCC2)c2ccc(Cl)cc2)cc1 (stereo unspecified)
CCOC(=O)c1c(C)n(-c2ccccc2)c2ccc(OC(=O)c3cc(OC)c(OC)c(OC)c3)cc12
COc1cc2cc(C(=O)Nc3ccccc3)c(N)nc2cc1OC
COc1ccc(CN2CCCC(C(=O)c3ccc(C(F)(F)F)cc3)C2)c(O)c1 (stereo unspecified)
CCOc1ccc(N2C(N)=NC(N)=NC2(C)C)cc1
CCOC(=O)c1cn(CC)c2cc(N3CCCCC3)c(F)cc2c1=O
CC(C)(C)c1ccc(C(=O)Nc2nc3ccccc3s2)cc1
CC(C)CCNCC(O)Cn1c2ccccc2c2ccccc21 (stereo unspecified)
COc1ccccc1N1C(=N)SC(=Cc2ccc(OCc3ccccc3F)cc2)C1=O
CC(=O)Nc1nnc(SCc2c(C)cc(C(C)(C)C)cc2C)s1
Cc1cccc(N2C(=O)C3C(C2=O)C2(c4ccccc4)C(=O)C3(c3ccccc3)C(c3ccc4c(c3)OCO4)=C2c2ccc3c(c2)OCO3)c1 (stereo unspecified)
O=C(Nc1ccsc1C(=O)NC1CCCCC1)c1ccc(F)cc1
FC(F)(F)c1ccc(Nc2nnnc3ccccc23)cc1
CSc1ccccc1C(=O)Nc1nc(-c2ccccn2)cs1
Cc1nc2ccccc2c(O)c1CC=C(Cl)Cl
Cc1ccc(-c2cc3nc4c(c(O)n3n2)CCCC4)cc1

Two compounds drawn at random from those above:
Residual sporozoite gliding motility, > 50%:
CCC(c1ccccc1)c1nn2c(-c3cccs3)nnc2s1 (stereo unspecified)
Oc1ccc(Cl)cc1CNc1nc2ccccc2[nH]1

Following part:

Residual sporozoite gliding motility, 45.3 ± 6.4%:
O=C(NC(c1ccccc1)c1ccc2cccnc2c1O)c1ccccc1 (stereo unspecified)
